# Values of other authors as cited in patent US11141417B2 (priority 2013, dated 2021).
# The name of at least one read-out is uncertain.
# Conditions: classification in words
smiles,measurement,value
"C[C@@H](c1ncncc1F)[C@](O)(Cn1cncn1)c1ccc(F)cc1F [Voriconazole, (2R,3S)-2-(2,4-difluorophenyl)-3-(5-fluoro-4-pyrimidinyl)-1-(1H-1,2,4triazol-1-yl)-2-butanol]",permeability,high permeability
